Publication PMC6627486, “Ipomoeassin F Binds Sec61α to Inhibit Protein Translocation” (Journal of the American Chemical Society, 2019)

System: MDA-MB-231 cells
Assay: Live cell imaging with fluorescent probe 12
Type: cell-based, human
Experimental: MDA-MB-231 cells were seeded on fibronectin-coated coverslips at 70% confluency in a 48-well plate and cultured at 37 °C and 5% CO2. After 24 h, culture medium was replaced with fresh medium containing a 20 µM competitor or an equal volume of DMSO vehicle for 30 min at 37 °C and 5% CO2, followed by addition of 0.2 µM (final concentration) fluorescent probe 12. After 1 h incubation at 37 °C and 5% CO2, the coverslips were mounted onto a glass slide with a mounting medium with or without 0.5 µg/ml DAPI.
The fluorescent images were acquired with a confocal microscope (Leica TCS SP5) using 405 nm excitation and 562 nm excitation. For the ER co-localization studies, 1 uM ER-Tracker™ Blue-White DPX was added to the medium after 1 h incubation with probe 12. After 5 min incubation, the coverslips were mounted onto a glass slide and the images were acquired as described above.
CT7 photo-affinity labeling and click chemistry were done as previously described.14 Briefly, SRMs (sheep rough microsomes, isolated as described in reference15) containing 100 nM Sec61 were treated with 10 µM ipomoeassin F/mycolactone or 1% DMSO for 30 min at 0°C, followed by incubation with 100 nM CT7 for 10 min RT. Samples were then photolyzed for 10 min and crosslinked proteins were detected by click chemistry, SDS-PAGE, and in-gel fluorescent scanning (Typhoon Trio, GE Healthcare).
In Vitro Membrane Translocation Assays.
Unless otherwise stated, all cDNAs are of human origin and as previously described: CytB5OPG2,16 GypC,17 ppαF (Saccharomyces cerevisiae),16 ppcecAOPG2 (Hyalophora cecropia),16 PPL (Bos Taurus),16 Sec61βOPG216 and VCAM1.17 Ii encodes residues 17 to 232 of the short form of human HLA class II histocompatibility antigen gamma chain (Ii; P04232, isoform 2). Linear DNA templates were generated by PCR and transcribed into RNA using T7 or SP6 polymerase (Promega).
In vitro translation and translocation into ER microsomes […]

Q: Which “subcellular localization of fluorescent probe” value (MDA-MB-231 cells, costained with ER or nucleus markers) does the source give for `C/C=C(\C)C(=O)O[C@@H]1[C@@H](O)[C@@H]2O[C@H]3[C@H](O[C@@H](CCCCC)CCCCCCC(=O)CCC(=O)OC[C@@H](O2)[C@H]1OC(=O)/C=C/c1ccc(OCc2cn(CCOCCOCCOCCNS(=O)(=O)c4ccc(-c5c6ccc(=[N+](CC)CC)cc-6oc6cc(N(CC)CC)ccc56)c(S(=O)(=O)[O-])c4)nn2)cc1)O[C@H](C)[C@H](OC(C)=O)[C@@H]3O` [compound 12] here?
A: The value was “strongly labeled the ER”.

Q: And the “time to give clear images” value (probe at 20 nM)?
A: Its value is greater than 3 h.

Q: And the “time to stain cells” value (probe at 2 μM)?
A: Its value is no more than 30 min.
